{"source": "PubChem BioAssay AID504791 (Drosophila RNAi Screening Center, 2011)", "test": "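Factors in Argonaute-based small RNA production and activity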 (primary screen)", "cell system": "Drosophila S2-derived reporter cells", "reagents": "long dsRNA against Drosophila genes, about 150-250 ng dsRNA per well (siRNA assay); about 80-120 ng (miRNA assay)", "time to read-out": "about 5 days (siRNA assay); about 4 days (miRNA assay)", "treatment": "copper sulfate induction of reporters: 25 µM (siRNA assay); 200 mM stated (miRNA assay), 1-2 days before reading", "detection": "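Dual luciferase assay: Renilla to firefly signal ratio in each well, scaled to the mean ratio of its plate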", "units": "stable assay Renilla, run 1 in luminescence; stable assay firefly, run 1 in luminescence", "active means": "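First-pass picks had plate-scaled ratios over 1.5 for the siRNA assay, over 1.6 for the miRNA assay, or under 0.6; two distinct dsRNAs had to score alike on retest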", "note": "The screen tested about 23,000 reagents; shown is a random part of those that have a named target and a result. Over the whole deposit, 199 (0.86%) got an active call. 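Plate-scaled ratios behind the calls are not deposited; printed light signals are raw; many rows marked increased or decreased are still called inactive.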 A number with no mark means an inactive call. The numbers tell different reagents against one gene apart. A plus sign joins genes that one reagent is predicted to hit. No sequences are given here. Not stated in the record: the direction of the score."}
{"gene":"CG6426","dsRNA no.":1,"stable assay Renilla, run 1":6667,"stable assay firefly, run 1":4.49e5}
{"gene":"CG6834","dsRNA no.":1,"stable assay Renilla, run 1":5864,"stable assay firefly, run 1":3.72e5}
{"gene":"CG30095","dsRNA no.":1,"stable assay Renilla, run 1":7110,"stable assay firefly, run 1":3.86e5}
{"gene":"Zip42C.2","dsRNA no.":1,"stable assay Renilla, run 1":5579,"stable assay firefly, run 1":3.21e5}
{"gene":"Smyd5","dsRNA no.":1,"stable assay Renilla, run 1":8318,"stable assay firefly, run 1":4.61e5}
{"gene":"CG34107","dsRNA no.":1,"stable assay Renilla, run 1":5964,"stable assay firefly, run 1":3.42e5}
{"gene":"scu","dsRNA no.":1,"stable assay Renilla, run 1":5979,"stable assay firefly, run 1":4.11e5}
{"gene":"CG13983","dsRNA no.":1,"stable assay Renilla, run 1":8434,"stable assay firefly, run 1":4.29e5}
{"gene":"MFS3","dsRNA no.":1,"stable assay Renilla, run 1":8507,"stable assay firefly, run 1":3.99e5}
{"gene":"ttv","dsRNA no.":1,"stable assay Renilla, run 1":7887,"stable assay firefly, run 1":4.49e5}
{"gene":"CG11679","dsRNA no.":1,"stable assay Renilla, run 1":6191,"stable assay firefly, run 1":4.03e5}
{"gene":"CG5321","dsRNA no.":1,"stable assay Renilla, run 1":4287,"stable assay firefly, run 1":3.36e5}
{"gene":"CG5321","dsRNA no.":2,"stable assay Renilla, run 1":2956,"stable assay firefly, run 1":2.96e5}
{"gene":"CG6753","dsRNA no.":1,"stable assay Renilla, run 1":6231,"stable assay firefly, run 1":4.05e5}
{"gene":"mRpL4","dsRNA no.":1,"stable assay Renilla, run 1":1.66e5,"stable assay firefly, run 1":1.45e6}
{"gene":"scyl","dsRNA no.":1,"stable assay Renilla, run 1":4139,"stable assay firefly, run 1":2.34e5}
{"gene":"eIF2beta","dsRNA no.":1,"stable siRNA reporter change":"reporter ratio lowered past the hit cutoff","miRNA reporter change":"reporter ratio raised past the hit cutoff","stable assay Renilla, run 1":5408,"stable assay firefly, run 1":7.22e5}
{"gene":"CG32793","dsRNA no.":1,"stable assay Renilla, run 1":6466,"stable assay firefly, run 1":4.03e5}
{"gene":"CG32793","dsRNA no.":2,"stable assay Renilla, run 1":5924,"stable assay firefly, run 1":3.38e5}
{"gene":"CG17300","dsRNA no.":1,"stable assay Renilla, run 1":5931,"stable assay firefly, run 1":4.93e5}
{"gene":"Wnt6","dsRNA no.":1,"stable assay Renilla, run 1":9917,"stable assay firefly, run 1":5.97e5}
{"gene":"Gem4b + Gem4c + Glos","dsRNA no.":1,"stable assay Renilla, run 1":4975,"stable assay firefly, run 1":3.11e5}
{"gene":"Fntb","dsRNA no.":1,"stable assay Renilla, run 1":7290,"stable assay firefly, run 1":2.85e5}
{"gene":"bbx + waw","dsRNA no.":1,"stable assay Renilla, run 1":7440,"stable assay firefly, run 1":4.24e5}
{"gene":"bbx + waw","dsRNA no.":2,"stable assay Renilla, run 1":6243,"stable assay firefly, run 1":4.19e5}
{"gene":"Mmp2","dsRNA no.":1,"stable assay Renilla, run 1":6759,"stable assay firefly, run 1":3.58e5}
{"gene":"Mmp2","dsRNA no.":2,"stable assay Renilla, run 1":9108,"stable assay firefly, run 1":5.82e5}
{"gene":"CG1492","dsRNA no.":1,"stable assay Renilla, run 1":5636,"stable assay firefly, run 1":4.00e5}
